Measured values taken from the supplement of paper PMC11006884.
This is a selection; strong and weak results do not stand in their true shares.

Chains of the proteins cited; added tags and fusions are not shown. Lines headed by an entry give the natural chain unless they say otherwise; changes in a name come on top.
UniProt Q14008: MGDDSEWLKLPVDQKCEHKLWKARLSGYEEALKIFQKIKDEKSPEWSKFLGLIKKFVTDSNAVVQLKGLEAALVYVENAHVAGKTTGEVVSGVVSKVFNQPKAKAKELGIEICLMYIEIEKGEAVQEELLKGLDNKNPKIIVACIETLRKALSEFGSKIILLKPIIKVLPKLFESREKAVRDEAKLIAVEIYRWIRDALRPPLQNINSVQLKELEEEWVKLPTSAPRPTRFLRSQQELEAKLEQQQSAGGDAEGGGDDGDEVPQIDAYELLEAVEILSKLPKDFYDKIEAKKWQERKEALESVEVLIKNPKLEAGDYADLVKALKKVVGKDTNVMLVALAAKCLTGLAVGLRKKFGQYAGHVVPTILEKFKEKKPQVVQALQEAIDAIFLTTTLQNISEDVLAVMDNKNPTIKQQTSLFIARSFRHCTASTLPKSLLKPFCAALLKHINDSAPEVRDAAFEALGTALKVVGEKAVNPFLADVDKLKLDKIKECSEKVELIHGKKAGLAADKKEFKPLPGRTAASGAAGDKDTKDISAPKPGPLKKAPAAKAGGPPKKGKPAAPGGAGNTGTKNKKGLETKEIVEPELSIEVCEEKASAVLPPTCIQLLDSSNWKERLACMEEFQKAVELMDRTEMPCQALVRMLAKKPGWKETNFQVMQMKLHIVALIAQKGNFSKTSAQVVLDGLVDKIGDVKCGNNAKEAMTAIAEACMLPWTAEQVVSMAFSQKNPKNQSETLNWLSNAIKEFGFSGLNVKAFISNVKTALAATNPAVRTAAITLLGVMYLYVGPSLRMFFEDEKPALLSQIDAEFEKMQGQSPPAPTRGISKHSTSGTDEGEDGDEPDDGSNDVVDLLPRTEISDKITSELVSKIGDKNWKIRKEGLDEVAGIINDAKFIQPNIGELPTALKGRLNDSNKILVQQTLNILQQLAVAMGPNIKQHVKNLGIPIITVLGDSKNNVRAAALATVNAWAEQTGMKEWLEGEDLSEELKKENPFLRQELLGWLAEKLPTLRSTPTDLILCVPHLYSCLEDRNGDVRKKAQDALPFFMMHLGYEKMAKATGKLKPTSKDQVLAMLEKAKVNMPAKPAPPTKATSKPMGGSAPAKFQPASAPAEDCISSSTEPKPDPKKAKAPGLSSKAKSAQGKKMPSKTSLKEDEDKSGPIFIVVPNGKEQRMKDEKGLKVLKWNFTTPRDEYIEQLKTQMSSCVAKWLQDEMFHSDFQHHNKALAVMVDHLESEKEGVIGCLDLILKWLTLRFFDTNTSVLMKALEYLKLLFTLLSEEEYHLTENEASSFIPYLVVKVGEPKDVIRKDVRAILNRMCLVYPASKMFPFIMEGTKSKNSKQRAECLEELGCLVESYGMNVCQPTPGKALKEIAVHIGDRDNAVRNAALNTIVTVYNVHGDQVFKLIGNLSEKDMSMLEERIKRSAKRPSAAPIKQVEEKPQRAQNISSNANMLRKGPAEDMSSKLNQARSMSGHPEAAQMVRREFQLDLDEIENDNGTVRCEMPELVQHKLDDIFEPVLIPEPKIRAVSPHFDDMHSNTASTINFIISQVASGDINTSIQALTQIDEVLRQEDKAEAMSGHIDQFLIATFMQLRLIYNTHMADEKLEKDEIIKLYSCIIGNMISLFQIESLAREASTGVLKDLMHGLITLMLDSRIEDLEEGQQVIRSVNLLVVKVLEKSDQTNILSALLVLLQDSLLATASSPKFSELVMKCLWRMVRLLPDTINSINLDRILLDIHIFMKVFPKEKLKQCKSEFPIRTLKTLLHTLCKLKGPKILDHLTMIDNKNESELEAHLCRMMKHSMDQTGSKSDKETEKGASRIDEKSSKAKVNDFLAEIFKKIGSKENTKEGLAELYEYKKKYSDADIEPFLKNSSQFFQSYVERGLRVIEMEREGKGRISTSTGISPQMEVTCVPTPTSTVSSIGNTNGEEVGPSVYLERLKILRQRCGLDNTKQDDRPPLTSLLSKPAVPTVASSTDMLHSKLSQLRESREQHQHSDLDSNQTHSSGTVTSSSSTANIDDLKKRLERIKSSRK
UniProt Q14166: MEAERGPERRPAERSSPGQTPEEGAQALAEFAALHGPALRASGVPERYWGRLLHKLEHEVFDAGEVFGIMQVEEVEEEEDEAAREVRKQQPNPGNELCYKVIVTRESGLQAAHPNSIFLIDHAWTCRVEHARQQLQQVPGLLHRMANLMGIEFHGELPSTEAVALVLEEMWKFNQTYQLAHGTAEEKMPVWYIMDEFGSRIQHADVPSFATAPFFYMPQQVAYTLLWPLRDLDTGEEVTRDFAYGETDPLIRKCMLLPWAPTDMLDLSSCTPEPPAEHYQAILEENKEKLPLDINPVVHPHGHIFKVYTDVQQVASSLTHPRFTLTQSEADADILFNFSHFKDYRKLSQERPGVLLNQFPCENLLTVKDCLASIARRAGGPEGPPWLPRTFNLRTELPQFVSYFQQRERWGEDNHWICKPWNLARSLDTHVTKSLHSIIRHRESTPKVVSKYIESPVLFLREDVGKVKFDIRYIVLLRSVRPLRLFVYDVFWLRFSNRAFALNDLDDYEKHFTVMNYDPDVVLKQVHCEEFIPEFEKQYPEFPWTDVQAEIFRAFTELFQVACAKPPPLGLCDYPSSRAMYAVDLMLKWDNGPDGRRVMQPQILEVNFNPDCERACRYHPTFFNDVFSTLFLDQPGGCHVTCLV
UniProt Q15003, whole entry, looked up: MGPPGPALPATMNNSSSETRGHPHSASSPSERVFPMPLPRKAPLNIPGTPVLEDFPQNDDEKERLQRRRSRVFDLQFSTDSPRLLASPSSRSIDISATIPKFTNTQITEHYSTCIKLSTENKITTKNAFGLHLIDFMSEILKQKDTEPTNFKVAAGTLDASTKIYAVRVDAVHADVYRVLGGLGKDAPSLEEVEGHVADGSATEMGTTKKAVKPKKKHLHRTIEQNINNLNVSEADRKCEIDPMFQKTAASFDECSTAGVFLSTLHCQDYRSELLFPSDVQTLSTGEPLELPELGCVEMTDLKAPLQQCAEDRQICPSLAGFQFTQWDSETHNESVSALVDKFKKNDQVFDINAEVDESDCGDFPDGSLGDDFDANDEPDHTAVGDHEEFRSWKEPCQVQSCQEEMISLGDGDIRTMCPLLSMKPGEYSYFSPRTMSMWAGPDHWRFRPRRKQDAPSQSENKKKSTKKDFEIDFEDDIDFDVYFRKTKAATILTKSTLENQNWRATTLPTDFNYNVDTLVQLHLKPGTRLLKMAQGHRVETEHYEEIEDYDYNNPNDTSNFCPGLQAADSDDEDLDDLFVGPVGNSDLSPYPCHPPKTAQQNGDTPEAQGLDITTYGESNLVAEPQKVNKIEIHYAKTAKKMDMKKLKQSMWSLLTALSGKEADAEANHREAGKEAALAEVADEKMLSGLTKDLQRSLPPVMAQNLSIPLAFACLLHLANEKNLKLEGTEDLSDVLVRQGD
UniProt Q15014, whole entry: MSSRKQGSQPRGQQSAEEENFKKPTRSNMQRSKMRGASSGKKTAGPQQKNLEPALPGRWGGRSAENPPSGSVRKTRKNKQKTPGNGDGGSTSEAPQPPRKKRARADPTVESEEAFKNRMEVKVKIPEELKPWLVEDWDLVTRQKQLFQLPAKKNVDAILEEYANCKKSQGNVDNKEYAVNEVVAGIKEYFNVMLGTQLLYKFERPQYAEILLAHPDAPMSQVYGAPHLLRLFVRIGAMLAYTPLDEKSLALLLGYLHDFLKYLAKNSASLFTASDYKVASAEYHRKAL
UniProt Q13642: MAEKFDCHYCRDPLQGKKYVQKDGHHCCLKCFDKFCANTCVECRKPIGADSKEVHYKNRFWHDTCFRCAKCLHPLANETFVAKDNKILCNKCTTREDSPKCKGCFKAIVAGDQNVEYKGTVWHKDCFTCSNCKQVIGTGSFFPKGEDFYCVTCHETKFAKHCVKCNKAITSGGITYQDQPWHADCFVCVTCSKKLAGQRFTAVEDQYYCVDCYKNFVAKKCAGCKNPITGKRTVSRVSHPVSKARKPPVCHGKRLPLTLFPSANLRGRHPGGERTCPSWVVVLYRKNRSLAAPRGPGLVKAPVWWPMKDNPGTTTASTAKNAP
UniProt Q14376: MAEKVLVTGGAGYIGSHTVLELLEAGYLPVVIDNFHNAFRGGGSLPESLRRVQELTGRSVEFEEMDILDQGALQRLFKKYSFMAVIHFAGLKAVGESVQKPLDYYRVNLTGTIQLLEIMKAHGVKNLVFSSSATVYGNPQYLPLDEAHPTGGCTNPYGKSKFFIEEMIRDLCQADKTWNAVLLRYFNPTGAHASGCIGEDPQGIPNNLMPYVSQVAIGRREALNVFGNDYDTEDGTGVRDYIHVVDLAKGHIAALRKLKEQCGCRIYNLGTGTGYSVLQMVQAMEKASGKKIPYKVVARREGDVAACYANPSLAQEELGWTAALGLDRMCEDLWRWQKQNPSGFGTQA
UniProt Q14574: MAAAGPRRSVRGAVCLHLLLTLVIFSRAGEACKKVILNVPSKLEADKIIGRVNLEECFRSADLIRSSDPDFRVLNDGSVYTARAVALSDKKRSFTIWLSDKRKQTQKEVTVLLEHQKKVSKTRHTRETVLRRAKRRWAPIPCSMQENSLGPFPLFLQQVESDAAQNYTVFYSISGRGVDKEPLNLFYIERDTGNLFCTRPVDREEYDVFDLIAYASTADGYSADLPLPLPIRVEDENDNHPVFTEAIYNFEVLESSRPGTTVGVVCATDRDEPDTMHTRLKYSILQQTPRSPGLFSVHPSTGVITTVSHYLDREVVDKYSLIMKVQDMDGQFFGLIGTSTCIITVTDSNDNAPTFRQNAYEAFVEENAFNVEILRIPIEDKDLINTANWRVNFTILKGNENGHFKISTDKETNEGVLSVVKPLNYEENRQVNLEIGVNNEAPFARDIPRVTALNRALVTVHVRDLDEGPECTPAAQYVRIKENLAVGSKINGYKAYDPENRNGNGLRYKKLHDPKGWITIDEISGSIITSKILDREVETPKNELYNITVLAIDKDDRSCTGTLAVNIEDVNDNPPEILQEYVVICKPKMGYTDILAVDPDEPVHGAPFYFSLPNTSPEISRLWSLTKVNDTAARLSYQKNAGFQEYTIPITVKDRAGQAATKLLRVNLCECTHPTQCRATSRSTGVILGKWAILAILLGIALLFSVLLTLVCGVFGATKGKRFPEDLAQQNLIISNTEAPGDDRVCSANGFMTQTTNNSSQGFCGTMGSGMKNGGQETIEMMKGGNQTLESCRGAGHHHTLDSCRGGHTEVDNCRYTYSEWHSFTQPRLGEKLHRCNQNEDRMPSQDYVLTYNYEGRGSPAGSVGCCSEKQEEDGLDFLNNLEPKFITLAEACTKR
UniProt Q13546: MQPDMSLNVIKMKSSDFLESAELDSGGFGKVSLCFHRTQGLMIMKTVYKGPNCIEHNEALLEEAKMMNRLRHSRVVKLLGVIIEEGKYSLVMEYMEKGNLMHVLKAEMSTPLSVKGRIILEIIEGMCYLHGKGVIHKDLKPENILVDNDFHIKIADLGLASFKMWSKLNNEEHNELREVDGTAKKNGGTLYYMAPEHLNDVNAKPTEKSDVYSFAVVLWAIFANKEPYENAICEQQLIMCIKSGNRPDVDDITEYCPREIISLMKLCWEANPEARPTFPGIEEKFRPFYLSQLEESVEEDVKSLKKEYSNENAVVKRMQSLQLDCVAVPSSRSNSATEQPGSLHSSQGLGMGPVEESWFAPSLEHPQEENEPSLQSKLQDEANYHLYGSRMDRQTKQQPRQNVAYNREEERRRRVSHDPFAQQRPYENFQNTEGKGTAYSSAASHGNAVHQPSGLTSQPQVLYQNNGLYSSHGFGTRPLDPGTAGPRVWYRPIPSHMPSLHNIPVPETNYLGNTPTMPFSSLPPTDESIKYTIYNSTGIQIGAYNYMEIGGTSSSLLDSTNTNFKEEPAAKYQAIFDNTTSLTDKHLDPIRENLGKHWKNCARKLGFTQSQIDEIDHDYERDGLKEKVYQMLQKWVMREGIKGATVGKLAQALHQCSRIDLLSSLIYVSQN
UniProt Q14247: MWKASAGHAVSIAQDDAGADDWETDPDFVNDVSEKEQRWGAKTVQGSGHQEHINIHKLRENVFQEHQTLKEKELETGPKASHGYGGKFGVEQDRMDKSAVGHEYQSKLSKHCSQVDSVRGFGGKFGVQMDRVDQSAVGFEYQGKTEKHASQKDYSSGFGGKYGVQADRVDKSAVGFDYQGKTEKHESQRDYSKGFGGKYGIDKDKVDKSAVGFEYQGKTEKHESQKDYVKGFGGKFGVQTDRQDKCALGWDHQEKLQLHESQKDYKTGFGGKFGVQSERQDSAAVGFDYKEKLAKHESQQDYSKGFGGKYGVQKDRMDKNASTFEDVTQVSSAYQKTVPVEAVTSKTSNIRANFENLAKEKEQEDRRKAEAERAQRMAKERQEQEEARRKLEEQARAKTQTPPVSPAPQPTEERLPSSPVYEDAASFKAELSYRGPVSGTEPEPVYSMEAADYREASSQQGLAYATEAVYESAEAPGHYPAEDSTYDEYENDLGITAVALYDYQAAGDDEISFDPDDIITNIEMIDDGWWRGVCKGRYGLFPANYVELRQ

Compound: COC(=O)C#Cc1ccccc1 [methyl 3-phenylpropiolate]
Assay: log2 ratio of iodoacetamide-alkyne labeling of the cysteine site, DMSO over compound (competition); higher = stronger covalent engagement of the cysteine by the compound, active = 1 or more
Conditions: 500 µM; treatment time 1 h; system: HEK293T cell lysate
In short: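 Three replicates, each with duplicate channels, were prepared from HEK293T lysate (2 mg/mL) treated with vehicle or electrophile at 500 µM for 1 h at ambient temperature. Iodoacetamide alkyne was then applied for 1 h, and samples were clicked to sCIP-TMT reagents, pooled, trypsin-digested overnight at 37 °C, enriched on streptavidin, acid-eluted and analysed on Orbitrap Eclipse LC-MS/MS with FAIMS, with FragPipe quantification. The log2 competition ratio per cysteine is the mean control-channel divided by the mean compound-channel reporter intensity. Cysteines quantified in only one replicate were left out.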

Target | log2 ratio of iodoacetamide-alkyne labeling
CKAP5 C1019 (UniProt Q14008) | inactive: 0.17
DDX39B C165 (UniProt Q13838) | inactive: -0.0098
TTLL12 C361 (UniProt Q14166) | inactive: -0.307
NUMA1 C80 (UniProt Q14980) | inactive: 0.378
UniProt Q13885_C12 | inactive: 0.783
EIF3A C478 (UniProt Q14152) | inactive: 0.28
TTLL12 C370 (UniProt Q14166) | inactive: -0.154
DCTN1 C636 (UniProt Q14203) | inactive: 0.407
NCAPH C255 (UniProt Q15003) | inactive: -0.0399
MELK C339 (UniProt Q14680) | inactive: 0.749
MORF4L2 C165 (UniProt Q15014) | inactive: 0.0726
SPTAN1 C315 (UniProt Q13813) | inactive: -0.0382
TRIP12 C35 (UniProt Q14669) | inactive: 0.627
FHL1 C7 (UniProt Q13642) | inactive: -0.0623
FHL1 C185 (UniProt Q13642) | inactive: -0.145
CKAP5 C1795 (UniProt Q14008) | inactive: 0.321
SQSTM1 C113 (UniProt Q13501) | active: 1.2
GALE C196 (UniProt Q14376) | inactive: 0.152
FHL2 C132 (UniProt Q14192) | inactive: 0.0991

Target | log2 ratio of iodoacetamide-alkyne labeling
PIN1 C113 (UniProt Q13526) | inactive: 0.0305
BLMH C73 (UniProt Q13867) | inactive: -0.00658
NCAPH C296 (UniProt Q15003) | inactive: 0.0103
DCTN1 C791 (UniProt Q14203) | inactive: 0.538
UniProt Q14574_C804 | inactive: 0.812
NCAPH C239 (UniProt Q15003) | inactive: 0.37
SART3 C472 (UniProt Q15020) | inactive: 0.326
DYNC1H1 C2594 (UniProt Q14204) | inactive: 0.0682
FKBP8 C227 (UniProt Q14318) | inactive: 0.165
BYSL C381 (UniProt Q13895) | inactive: 0.345
SPTAN1 C1314 (UniProt Q13813) | inactive: 0.12
RIPK1 C325 (UniProt Q13546) | inactive: 0.409
EIF4EBP2 C35 (UniProt Q13542) | inactive: 0.489
SQSTM1 C131 (UniProt Q13501) | inactive: 0.051
SQSTM1 C128 (UniProt Q13501) | inactive: 0.051
FHL1 C71 (UniProt Q13642) | inactive: 0.0627
MTMR2 C95 (UniProt Q13614) | inactive: 0.0149
CTTN C246 (UniProt Q14247) | inactive: 0.834

Random excerpt: two entries already listed
Target | log2 ratio of iodoacetamide-alkyne labeling
TTLL12 C370 (UniProt Q14166) | inactive: -0.154
CKAP5 C1795 (UniProt Q14008) | inactive: 0.321
